Reference: PMC12040169 (PLOS Biology, 2025)
The other results are listed elsewhere or left out.

Tested on: T1, CTL2-GFP (C. trachomatis L2/434/Bu, GFP-expressing)
T1 construct: L2/434/Bu, GFP-expressing
Parameters: species or system HeLa; Intracellular C. trachomatis growth in HeLa cells, bulk GFP fluorescence relative to DMSO
Conditions: bulk GFP, single well; 28.5 h, 10 µM; inhibitor

| Structure (SMILES) | % of control remaining [%] |
| --- | --- |
| O=C(Nc1cccc2ccccc12)C1CCC(C(=O)Nc2cccc3ccccc23)CC1 (stereo not drawn) [CBK268706] | 145.285 |
| CC(=O)C1=C(C)NC(SCC(=O)c2ccc(F)cc2)=C(C#N)C1c1sccc1C (stereo not drawn) [CBK262624] | 117.472 |
| COCC1OC(n2cc(C)c(=O)[nH]c2=O)CC1O (stereo not drawn) [CBK201338] | 162.956 |
| Cc1ccc2c(c1)oc(=O)n2CCNC(=O)c1cccs1 [CBK284472] | 87.8664 |
| CCOc1ccc(-n2c(SCc3nc4ccccc4[nH]3)nc3sc4c(c3c2=O)CCCC4)cc1 [CBK264581] | 119.494 |
| CC(C)(C)NCC(O)COc1cccc2c3c(oc12)CCCC3 (stereo not drawn) [CBK008871C] | 96.5732 |
| O=C1N=C(NCC2CCCCC2)SC1CC(=O)N1Cc2ccccc2C1 (stereo not drawn) [CBK067016] | 140.849 |
| CCCCCc1nc(N)c(-c2cccc(Br)c2)c(C#N)c1CCCC [CBK026574] | 104.474 |
| CN1CCC(N2CCN(C(=O)NCc3ccc(Cl)c(Cl)c3)CC2)CC1 [CBK155883] | 97.8528 |
| Cc1nc(C(C)NC(=O)CCc2cnn(C)c2)c(C)s1 (stereo not drawn) [CBK307064] | 113.933 |
| O=S(=O)(c1ccc(I)cc1)n1ccc2c(N3CCNCC3)cncc21 [CBK081326C] | 105.962 |
| O=C(NCCc1c[nH]c2ccc(F)cc12)Nc1ccccc1 [CBK269964] | 63.6327 |
| O=C(c1c(F)cccc1F)N1C2CCC1c1snnc1C2 (stereo not drawn) [CBK284990] | 115.763 |
| Cn1c(=O)n(C)c2cc(CNCc3ccccn3)ccc21 [CBK288118] | 126.653 |
| CCOC(=O)N1CCC(NS(=O)(=O)Cc2ccccc2)CC1 [CBK045457] | 108.138 |
| CN1CC(C(=O)NCC(c2ccccc2)N2CCCCCC2)CC1=O (stereo not drawn) [CBK282008] | 100.36 |
| CC(C)(C)c1[nH]c2ncccc2c1CN1CCSCC1 [CBK285340] | 146.879 |
| Cc1nc2cc(C(=O)O)ccc2n1CCO [CBK260949] | 121.067 |
| COc1ccc2cc(/C=C(\C#N)c3nc(-c4cc5ccccc5oc4=O)cs3)c(Cl)nc2c1 [CBK261623] | 116.501 |
| c1ccc(OCCCCN2CCCC23CCc2[nH]c4ccccc4c2C3)cc1 (stereo not drawn) [CBK092200T] | 97.6296 |
| Cn1ccc2cc(-c3cn4ccnc4c(N4CCOCC4)n3)ccc21 [CBK066696] | 108.033 |
| O=C(NC1CCCCC1)N[C@H]1CO[C@H]2[C@@H]1OC[C@@H]2n1cc(CC2CCCCC2)nn1 [CBK289510] | 145.077 |
| CCN(CC)CCSc1nc(O)c(-c2ccccc2)c(=O)n1-c1ccccc1 [CBK263335C] | 86.2551 |
| Cc1cc2n(n1)C(c1ccc(C(=O)O)cc1)Nc1ccccc1-2 (stereo not drawn) [CBK287000] | 124.824 |
| CC(=O)N1C[C@@H]2C[C@H](C1)c1ccc(NC(=O)c3ccc(C#N)cc3)c(=O)n1C2 [CBK289202] | 137.414 |
| c1ccc2c(c1)NCC21CCNCC1 [CBK022583] | 100.426 |

| Structure (SMILES) | % of control remaining [%] |
| --- | --- |
| CSCC[C@H](NC(=O)Nc1ccc(N2CCC(C)CC2)cc1)C(=O)O [CBK286743] | 128.695 |
| COc1cc(S(=O)(=O)NCCOc2ccc(C(=O)O)cc2)c(OC)cc1Cl [CBK299825] | 126.59 |
| C[N+]1(C)CCCC1c1cc(Br)cnc1N (stereo not drawn) [CBK217873I] | 108.94 |
| O=C(/C=C/c1ccco1)Nc1sc2c(c1C(=O)NCc1ccco1)CCC2 [CBK265616] | 106.939 |
| O=C1CCCN1CCOc1nccnc1-c1ccc(F)cc1 [CBK106895] | 99.1031 |
| CCC(C(=O)Nc1ccccc1C(=O)Nc1c(Cl)cccc1Cl)c1ccccc1 (stereo not drawn) [CBK266068] | 115.653 |
| Nc1ncc(-c2cccnc2)nc1NCc1ccccc1 [CBK063349] | 214.745 |
| O=C(c1ccccc1)N1CCC(c2cc3ncccc3[nH]2)CC1 [CBK283385] | 130.142 |
| O=C(O)c1cccc(NS(=O)(=O)c2ccc(Cl)c(C(=O)Nc3ccc(Br)cc3)c2)c1 [CBK263241] | 107.307 |
| COc1cc(-c2cc(N3CCN(CCN4CCCC4)CC3)ncn2)cc(OC)c1OC [CBK037841] | 106.181 |
| OC(Cn1cnc(-c2ccccc2)c1-c1ccccc1)Cn1c2ccccc2c2ccccc21 (stereo not drawn) [CBK261416] | 100 |
| Cc1ccc2c(CC(=O)N3CCNCC3c3cnn(C)c3)coc2c1C (stereo not drawn) [CBK304271C] | 101.922 |
| Cc1ccc(C(=O)NCc2ccc(-c3n[nH]cc3C(=O)N(C)Cc3ccccc3)cc2)cc1 [CBK285598] | 105.499 |
| Cc1ccc(Oc2ncccc2[N+](=O)[O-])c(Br)c1 [CBK002822] | 99.3885 |
| COc1ccc([N+](=O)[O-])cc1NC(=O)c1nc(C)c(C)nc1C(=O)O [CBK103387] | 114.754 |
| CCCCc1ccc(-c2ccc3ccc(NC(=O)C(C)C)nc3n2)cc1 [CBK073668] | 134.812 |
| O=C(Nc1ccc(Cc2ccncc2)cc1)c1ccc(CSc2ccc(Cl)cc2)cc1 [CBK262526] | 100 |
| CCn1c(SCC(=O)Nc2nc(C)c(C(=O)OC)s2)nc2c1c(=O)n(C)c(=O)n2C [CBK127470] | 116.748 |
| Fc1ccc(CN(Cc2ccsc2)[C@@H]2COC[C@H]2c2ccc(F)cc2)cc1 [CBK286486] | 121.161 |
| Cc1cc2c([nH]c3ccccc32)c(C)n1 [CBK262689] | 81.132 |
| CCOc1ccccc1OCC(C)CNC (stereo not drawn) [CBK026242G] | 105.003 |
| N#Cc1cc(Cl)ccc1CN1CCCCC1c1[nH]ncc1C(N)=O (stereo not drawn) [CBK304746] | 113.099 |
| O=C(O)CCC(NC(=O)c1ccc(-c2ccc(Cl)cc2)s1)C(=O)O (stereo not drawn) [CBK295171] | 186.239 |
| O=[N+]([O-])c1cccnc1Oc1cccc2cccnc12 [CBK002760] | 119.646 |
| CCN(CC)CCn1c(NC(=O)c2c(Cl)nc3ccccn23)nc2ccccc21 [CBK298305] | 121.232 |

2 records picked at random from those above, as already listed:

| Structure (SMILES) | % of control remaining [%] |
| --- | --- |
| CN1CC(C(=O)NCC(c2ccccc2)N2CCCCCC2)CC1=O (stereo not drawn) [CBK282008] | 100.36 |
| O=C(/C=C/c1ccco1)Nc1sc2c(c1C(=O)NCc1ccco1)CCC2 [CBK265616] | 106.939 |
